Reference: article PMC7719796, “Structural Insights on Tiny Peptide Nucleic Acid (PNA) Analogues of miRNA-34a: An in silico and Experimental Integrated Approach” (Frontiers in Chemistry, 2020)

Tested on: Kelly neuroblastoma cells
Assay: Confocal microscopy of cellular uptake / subcellular localization
Format: cell-based, Human
Conditions: 2.5 μM, no transfection agent, fixed cells
Experimental: The FITC-PNA2 and FITC-PNA3 cellular uptake was also assessed by confocal microscopy (Figure 9B). The membrane/nuclei optimal staining protocol and stain compatibility were screened on live and fixed cells in order to achieve the best image resolution. The coverslips were pre-treated with collagen prior to cells being seeded and incubated for 24 h with 2.5 μM solutions for each of PNAs. […] The cellular uptake of tiny FITC-PNA2 and FITC-PNA3 in the absence of any transfection agent was unexpectedly low if compared to longer sequences, as previously reported by our group (Piacenti et al., [2019]). The employment of endosome disrupting agents and dose/uptake correlation needs further exploration as well as conjugation to different peptide carriers (R8) or different delivery strategies (e.g., liposomes).
Eight well-coverslips were treated with 0.2 mM solution of collagen in DMEM, and incubated at 0–4°C overnight. The wells were washed with PBS before seeding. Kelly cells were plated at 10^4 cells/well density. After 48 h from seeding, the growth media was replaced with serum-free media and cells were treated with 200 μL of 2.5 μM solutions of FITC-PNA2 and FITC-PNA3 in Opti-MEM. Wells were gently agitated to provide an even treatment of the cells and incubated at 37°C for 6 h. After incubation, 100 μl of 40% FBS in RPMI were added to each well in the 8-well coverslip. […]

FITC- Ahx -CK - tggcagtg—KKK- NH2 [FITC-PNA3, PNA1 with Cys-Lys at N-terminus and KKK at C-terminus, FITC-Ahx; reported in previous work, used for comparison]
Subcellular localization of FITC fluorescence: localized in vesicular shapes in the cytosol

FITC- Ahx -K- tggcagtg—KKK-NH2 [FITC-PNA2, PNA1 with K at N-terminus and KKK at C-terminus, Ahx linker and FITC fluorescent tag]
Subcellular localization of FITC fluorescence: localized in vesicular shapes in the cytosol
